The target of this assay is yDna2 (Saccharomyces cerevisiae, UniProt P38859). Put plainly: High-throughput fluorescence nuclease assay with yDna2 (triply labeled (dT)30 ssDNA). The assay is classed as biochemical, yeast. Particulars: read-out: IC50 from Screening In Vitro; compounds that inhibit yDna2 but not T5 nuclease; 384-well platform.

Amino acid sequences for entries named in this document (tags omitted).
UniProt P38859, whole entry: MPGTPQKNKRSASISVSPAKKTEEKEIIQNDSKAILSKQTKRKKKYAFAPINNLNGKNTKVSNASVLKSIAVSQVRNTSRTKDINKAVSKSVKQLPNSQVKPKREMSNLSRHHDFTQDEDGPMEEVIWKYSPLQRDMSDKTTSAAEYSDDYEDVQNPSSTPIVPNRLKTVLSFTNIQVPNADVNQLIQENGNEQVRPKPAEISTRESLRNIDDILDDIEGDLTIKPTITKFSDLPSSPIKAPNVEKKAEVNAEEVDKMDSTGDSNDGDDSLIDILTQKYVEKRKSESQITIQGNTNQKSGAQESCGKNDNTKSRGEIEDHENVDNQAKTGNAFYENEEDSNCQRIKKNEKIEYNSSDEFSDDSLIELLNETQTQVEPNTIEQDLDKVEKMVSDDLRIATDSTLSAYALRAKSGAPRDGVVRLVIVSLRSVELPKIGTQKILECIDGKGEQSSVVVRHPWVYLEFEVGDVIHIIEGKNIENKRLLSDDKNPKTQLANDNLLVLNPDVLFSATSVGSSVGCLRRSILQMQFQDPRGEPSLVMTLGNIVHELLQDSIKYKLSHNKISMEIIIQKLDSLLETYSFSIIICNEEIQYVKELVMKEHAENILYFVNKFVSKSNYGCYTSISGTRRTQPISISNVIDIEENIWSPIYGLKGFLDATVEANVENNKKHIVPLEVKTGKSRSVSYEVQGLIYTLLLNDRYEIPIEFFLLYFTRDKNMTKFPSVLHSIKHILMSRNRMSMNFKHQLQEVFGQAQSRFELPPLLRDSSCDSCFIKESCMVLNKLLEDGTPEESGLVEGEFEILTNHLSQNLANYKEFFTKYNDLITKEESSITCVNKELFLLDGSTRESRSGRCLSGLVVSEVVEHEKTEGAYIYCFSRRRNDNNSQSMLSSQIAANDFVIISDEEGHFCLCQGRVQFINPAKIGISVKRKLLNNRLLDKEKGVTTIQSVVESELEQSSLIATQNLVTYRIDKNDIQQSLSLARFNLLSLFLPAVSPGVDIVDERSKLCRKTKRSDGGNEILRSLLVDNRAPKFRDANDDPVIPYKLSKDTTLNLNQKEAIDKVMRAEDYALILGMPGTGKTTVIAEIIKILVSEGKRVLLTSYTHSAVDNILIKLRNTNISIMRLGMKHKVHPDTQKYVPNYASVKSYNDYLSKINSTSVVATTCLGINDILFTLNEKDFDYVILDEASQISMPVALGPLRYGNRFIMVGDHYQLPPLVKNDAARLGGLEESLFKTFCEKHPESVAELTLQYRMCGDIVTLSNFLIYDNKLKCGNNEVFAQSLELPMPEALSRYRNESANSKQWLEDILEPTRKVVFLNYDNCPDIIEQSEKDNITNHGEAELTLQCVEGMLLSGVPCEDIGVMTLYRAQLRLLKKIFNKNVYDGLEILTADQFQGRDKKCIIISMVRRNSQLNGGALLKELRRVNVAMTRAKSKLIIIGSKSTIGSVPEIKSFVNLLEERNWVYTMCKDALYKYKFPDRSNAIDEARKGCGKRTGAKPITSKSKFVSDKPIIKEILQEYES

A number of entries come with more than one value. Only these are listed. There may be further records. Results that share an entry differ for a reason that is not stated; they may come from other doses, times, organisms or constructs than stated.

One may read the IC50 as the concentration that inhibits the measured activity by half. As to `COC1=C(N)C(=O)c2nc(-c3nc(C(=O)O)c(C)c(-c4ccc(OC)c(OC)c4O)c3N)ccc2C1=O`, the IC50 was 5.9 µM and 2.5 µM.

For the origin of these results see publication PMC5520492, “Inhibition of DNA2 nuclease as a therapeutic strategy targeting replication stress in cancer cells” (Oncogenesis, 2017).
